{"sequences": {"note": "By UniProt entry, the sequences of proteins in these tests, tags left out.", "UniProt O95905": "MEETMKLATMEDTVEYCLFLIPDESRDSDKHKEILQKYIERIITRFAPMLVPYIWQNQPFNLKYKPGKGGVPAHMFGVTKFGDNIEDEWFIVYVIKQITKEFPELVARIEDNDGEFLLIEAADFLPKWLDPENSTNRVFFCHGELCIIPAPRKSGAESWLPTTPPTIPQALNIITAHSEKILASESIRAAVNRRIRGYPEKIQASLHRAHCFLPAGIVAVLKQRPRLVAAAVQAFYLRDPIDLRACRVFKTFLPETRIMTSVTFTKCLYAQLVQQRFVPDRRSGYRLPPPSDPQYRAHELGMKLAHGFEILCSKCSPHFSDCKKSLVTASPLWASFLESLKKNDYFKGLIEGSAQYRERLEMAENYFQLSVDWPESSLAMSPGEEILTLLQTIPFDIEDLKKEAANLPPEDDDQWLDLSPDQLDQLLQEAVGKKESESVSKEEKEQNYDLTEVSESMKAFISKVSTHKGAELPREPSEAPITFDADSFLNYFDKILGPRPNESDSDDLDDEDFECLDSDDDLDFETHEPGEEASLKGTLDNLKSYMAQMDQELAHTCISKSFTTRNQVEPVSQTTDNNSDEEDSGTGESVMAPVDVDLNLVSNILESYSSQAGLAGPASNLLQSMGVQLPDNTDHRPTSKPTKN", "UniProt O75643": "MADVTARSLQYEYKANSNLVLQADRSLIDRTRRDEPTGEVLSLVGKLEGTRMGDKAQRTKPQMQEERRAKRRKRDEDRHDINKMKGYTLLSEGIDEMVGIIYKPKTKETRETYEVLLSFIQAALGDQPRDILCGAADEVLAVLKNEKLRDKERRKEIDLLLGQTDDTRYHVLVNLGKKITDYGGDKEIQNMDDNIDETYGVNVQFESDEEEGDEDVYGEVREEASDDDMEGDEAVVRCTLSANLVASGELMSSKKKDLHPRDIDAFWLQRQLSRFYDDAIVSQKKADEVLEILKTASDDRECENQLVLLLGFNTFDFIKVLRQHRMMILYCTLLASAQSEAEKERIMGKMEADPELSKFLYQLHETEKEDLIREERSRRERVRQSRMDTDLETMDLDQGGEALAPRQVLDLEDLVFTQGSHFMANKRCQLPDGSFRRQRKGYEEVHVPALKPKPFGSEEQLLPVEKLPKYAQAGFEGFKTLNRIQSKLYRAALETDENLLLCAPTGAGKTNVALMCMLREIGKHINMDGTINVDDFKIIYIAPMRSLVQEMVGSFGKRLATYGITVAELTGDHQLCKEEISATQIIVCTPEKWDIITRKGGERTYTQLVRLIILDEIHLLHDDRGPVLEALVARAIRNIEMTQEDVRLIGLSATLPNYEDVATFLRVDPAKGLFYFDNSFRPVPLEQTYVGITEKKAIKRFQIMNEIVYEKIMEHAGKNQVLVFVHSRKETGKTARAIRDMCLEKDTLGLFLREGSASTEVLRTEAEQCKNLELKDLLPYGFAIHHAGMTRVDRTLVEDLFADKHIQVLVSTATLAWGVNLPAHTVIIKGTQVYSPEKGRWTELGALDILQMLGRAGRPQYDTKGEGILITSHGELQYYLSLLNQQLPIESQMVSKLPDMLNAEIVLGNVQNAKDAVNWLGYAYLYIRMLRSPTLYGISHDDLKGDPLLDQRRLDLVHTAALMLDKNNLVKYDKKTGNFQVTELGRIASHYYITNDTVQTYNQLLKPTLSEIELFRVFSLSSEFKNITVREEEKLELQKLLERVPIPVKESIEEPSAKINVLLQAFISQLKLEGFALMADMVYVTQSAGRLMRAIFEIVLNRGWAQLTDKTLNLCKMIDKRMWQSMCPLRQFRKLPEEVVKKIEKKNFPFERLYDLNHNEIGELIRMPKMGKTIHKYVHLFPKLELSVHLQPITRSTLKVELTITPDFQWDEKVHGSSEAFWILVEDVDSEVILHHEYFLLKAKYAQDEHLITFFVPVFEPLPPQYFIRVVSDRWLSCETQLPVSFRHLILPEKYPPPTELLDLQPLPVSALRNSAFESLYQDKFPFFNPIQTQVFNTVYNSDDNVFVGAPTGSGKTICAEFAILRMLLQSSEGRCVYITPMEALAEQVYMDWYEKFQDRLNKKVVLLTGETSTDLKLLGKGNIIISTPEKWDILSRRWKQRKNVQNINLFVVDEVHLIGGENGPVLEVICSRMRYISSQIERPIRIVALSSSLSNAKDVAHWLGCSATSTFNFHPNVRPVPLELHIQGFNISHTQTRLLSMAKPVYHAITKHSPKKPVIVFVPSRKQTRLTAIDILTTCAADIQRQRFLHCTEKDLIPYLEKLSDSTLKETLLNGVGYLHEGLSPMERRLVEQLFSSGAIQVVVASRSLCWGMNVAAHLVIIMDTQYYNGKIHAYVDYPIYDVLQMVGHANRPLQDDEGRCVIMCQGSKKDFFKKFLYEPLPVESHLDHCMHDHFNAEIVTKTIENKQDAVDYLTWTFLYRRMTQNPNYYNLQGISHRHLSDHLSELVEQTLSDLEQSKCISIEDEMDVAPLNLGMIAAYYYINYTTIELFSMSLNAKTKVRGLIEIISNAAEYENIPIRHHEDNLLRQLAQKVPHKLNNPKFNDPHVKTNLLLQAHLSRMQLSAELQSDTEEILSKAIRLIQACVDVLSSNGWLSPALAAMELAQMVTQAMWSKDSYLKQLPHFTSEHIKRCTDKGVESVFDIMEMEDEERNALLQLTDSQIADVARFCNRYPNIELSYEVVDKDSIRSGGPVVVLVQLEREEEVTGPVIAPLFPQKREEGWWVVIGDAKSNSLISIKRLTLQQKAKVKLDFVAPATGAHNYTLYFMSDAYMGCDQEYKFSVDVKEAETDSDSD", "UniProt Q13838": "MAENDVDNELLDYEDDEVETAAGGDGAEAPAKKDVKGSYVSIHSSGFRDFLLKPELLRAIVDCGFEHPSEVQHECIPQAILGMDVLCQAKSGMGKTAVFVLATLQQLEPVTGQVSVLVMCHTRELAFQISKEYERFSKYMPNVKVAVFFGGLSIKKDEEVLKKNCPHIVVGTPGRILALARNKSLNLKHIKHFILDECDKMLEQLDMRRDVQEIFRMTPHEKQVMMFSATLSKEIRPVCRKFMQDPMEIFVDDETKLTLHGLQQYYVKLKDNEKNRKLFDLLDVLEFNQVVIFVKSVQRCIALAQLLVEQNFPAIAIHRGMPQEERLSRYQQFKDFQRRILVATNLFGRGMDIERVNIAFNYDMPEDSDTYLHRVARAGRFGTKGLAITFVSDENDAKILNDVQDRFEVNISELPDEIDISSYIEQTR"}, "source": "paper PMC8224239", "key": {"[1]": {"target": "FLAG-tagged WT (wild-type) ECD (human) (UniProt O95905)", "assay": "affinity purification with mass spectrometry; FLAG-tagged ECD expressed in HEK-293T cells; affinity purification of ECD-associated proteins; mass spectrometry"}, "[2]": {"target": "recombinant ECD protein with an N-terminal glutathione transferase (GST) and a C-terminal FLAG tag (human) (UniProt O95905)", "assay": "affinity purification with mass spectrometry; in vitro tandem affinity purification with recombinant GST-ECD-FLAG as bait for cellular proteins; bound proteins identified by mass spectrometry; only the target purified"}}, "note": "Results are given in words; binding and its absence hold for the method and conditions named. In cells and extracts the contact can be indirect. A yes stands for co-enrichment or nearness to the bait. Other partners may have been found.", "data": [{"substance": "BRR2 (from UniProt O75643 1-2136)", "values": [{"measurement": "binding", "setting": "[1]", "value": "binds"}, {"measurement": "binding", "setting": "[2]", "value": "binds"}]}, {"substance": "DDX39B (from UniProt Q13838 1-428)", "values": [{"measurement": "binding", "setting": "[1]", "value": "binds"}, {"measurement": "binding", "setting": "[2]", "value": "binds"}]}]}
